Experimental data as given in patent US20130296228A1, “EFFLUX PUMP INHIBITORS” (priority 2010, published 2013).
For at least one compound, name, drawing or mass did not settle the structure.

System: P. aeruginosa 23587
Assay: Diameter of zone of inhibition of antimicrobial agents with or without efflux pump inhibitor
Assay type: cell-based
Conditions: for Diameter of zone of inhibition: Table 2, P. aeruginosa (23587)
Text: Since RND efflux pumps operate by utilizing energy in […], metabolic inhibitor, sodium azide brings about MDR RND pump inhibition by causing energy deprivation.

With `CC[n+]1c(-c2ccccc2)c2cc(N)ccc2c2ccc(N)cc21` [Ethidium Bromide, ethidium bromide] as the molecule, how does the “change of activity on addition of sodium azide” value read?
The value was “potentiated”.

And the “Diameter of zone of inhibition” value (+Reserpine (25 μg/ml), 50 μg/well)?
The value was “Nil”.

What about the “Diameter of zone of inhibition” value (+Reserpine (25 μg/ml), 100 μg/well) of the same molecule?
The value was “Nil”.

What about the “Diameter of zone of inhibition” value (+Reserpine (25 μg/ml), 200 μg/well) of the same molecule?
The value was “Nil”.

What about the “Diameter of zone of inhibition” value (Control, 50 μg/well) of the same molecule?
The value was “Nil”.

And the “Diameter of zone of inhibition” value (Control, 100 μg/well)?
The value was “Nil”.

And the “Diameter of zone of inhibition” value (Control, 200 μg/well)?
Its value is “Nil”.
